Experimental data taken from the supplement of paper PMC12067093, “Discovery and optimisation of a covalent ligand for TRIM25 and its application to targeted protein ubiquitination” (Chemical Science, 2025).
Some of the results follow.

By UniProt entry, the sequences of proteins in these tests, tags left out. Where a name states a change or a piece, a line headed by the entry shows the natural chain unless it says otherwise.
UniProt Q9Y228: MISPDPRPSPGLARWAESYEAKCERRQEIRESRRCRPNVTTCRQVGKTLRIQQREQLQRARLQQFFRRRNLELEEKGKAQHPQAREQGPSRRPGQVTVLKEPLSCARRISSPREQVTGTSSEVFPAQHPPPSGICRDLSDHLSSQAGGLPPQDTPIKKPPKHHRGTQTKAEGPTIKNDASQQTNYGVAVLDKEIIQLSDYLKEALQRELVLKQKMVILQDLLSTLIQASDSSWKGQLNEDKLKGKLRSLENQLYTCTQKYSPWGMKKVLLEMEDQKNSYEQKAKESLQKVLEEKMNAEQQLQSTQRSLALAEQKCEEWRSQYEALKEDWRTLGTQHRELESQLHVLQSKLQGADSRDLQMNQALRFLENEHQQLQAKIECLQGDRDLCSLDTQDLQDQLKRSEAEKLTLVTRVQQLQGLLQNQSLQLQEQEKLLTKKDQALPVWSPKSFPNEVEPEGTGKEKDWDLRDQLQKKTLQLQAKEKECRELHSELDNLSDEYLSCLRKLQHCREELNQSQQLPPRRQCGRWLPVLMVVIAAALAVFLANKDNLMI
UniProt Q14142: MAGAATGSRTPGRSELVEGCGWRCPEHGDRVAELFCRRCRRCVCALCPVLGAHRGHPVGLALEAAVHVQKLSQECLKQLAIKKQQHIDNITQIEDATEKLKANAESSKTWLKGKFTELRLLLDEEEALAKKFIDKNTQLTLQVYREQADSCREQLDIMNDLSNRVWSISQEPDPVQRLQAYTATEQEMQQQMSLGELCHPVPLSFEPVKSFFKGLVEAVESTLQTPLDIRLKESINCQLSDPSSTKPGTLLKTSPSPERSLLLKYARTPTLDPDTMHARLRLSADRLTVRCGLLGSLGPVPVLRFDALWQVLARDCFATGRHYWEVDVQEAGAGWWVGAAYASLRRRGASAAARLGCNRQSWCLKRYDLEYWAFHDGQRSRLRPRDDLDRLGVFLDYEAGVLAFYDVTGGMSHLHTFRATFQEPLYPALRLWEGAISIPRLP
UniProt Q14258, whole entry, looked up: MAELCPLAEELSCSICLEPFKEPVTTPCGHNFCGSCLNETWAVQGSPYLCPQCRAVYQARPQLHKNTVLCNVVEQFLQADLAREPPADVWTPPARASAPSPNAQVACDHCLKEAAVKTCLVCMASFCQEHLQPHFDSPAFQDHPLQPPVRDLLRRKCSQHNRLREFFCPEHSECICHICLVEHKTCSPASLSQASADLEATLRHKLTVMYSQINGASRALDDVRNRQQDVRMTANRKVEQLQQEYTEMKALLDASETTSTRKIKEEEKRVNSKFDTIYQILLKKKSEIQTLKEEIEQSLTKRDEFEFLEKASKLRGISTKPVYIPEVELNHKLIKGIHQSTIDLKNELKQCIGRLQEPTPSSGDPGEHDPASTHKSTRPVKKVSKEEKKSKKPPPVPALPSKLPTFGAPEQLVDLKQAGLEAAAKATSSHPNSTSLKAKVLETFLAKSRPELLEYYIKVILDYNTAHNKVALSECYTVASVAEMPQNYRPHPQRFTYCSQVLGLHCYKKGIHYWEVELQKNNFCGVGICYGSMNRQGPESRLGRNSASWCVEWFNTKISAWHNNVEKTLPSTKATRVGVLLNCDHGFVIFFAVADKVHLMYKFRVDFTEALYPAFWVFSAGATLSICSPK
UniProt Q9H3H1: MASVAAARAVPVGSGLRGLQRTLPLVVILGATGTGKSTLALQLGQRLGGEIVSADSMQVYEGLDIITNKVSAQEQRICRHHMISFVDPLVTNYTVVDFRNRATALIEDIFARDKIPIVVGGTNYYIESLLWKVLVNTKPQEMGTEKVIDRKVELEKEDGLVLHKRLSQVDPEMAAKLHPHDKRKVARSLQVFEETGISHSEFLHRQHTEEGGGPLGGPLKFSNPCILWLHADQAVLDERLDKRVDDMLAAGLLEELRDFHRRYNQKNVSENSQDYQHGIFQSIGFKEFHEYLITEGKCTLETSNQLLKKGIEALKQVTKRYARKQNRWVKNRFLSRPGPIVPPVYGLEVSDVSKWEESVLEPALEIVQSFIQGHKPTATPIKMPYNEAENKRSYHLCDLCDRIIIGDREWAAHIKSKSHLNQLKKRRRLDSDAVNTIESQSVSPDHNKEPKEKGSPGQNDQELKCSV
UniProt Q13049: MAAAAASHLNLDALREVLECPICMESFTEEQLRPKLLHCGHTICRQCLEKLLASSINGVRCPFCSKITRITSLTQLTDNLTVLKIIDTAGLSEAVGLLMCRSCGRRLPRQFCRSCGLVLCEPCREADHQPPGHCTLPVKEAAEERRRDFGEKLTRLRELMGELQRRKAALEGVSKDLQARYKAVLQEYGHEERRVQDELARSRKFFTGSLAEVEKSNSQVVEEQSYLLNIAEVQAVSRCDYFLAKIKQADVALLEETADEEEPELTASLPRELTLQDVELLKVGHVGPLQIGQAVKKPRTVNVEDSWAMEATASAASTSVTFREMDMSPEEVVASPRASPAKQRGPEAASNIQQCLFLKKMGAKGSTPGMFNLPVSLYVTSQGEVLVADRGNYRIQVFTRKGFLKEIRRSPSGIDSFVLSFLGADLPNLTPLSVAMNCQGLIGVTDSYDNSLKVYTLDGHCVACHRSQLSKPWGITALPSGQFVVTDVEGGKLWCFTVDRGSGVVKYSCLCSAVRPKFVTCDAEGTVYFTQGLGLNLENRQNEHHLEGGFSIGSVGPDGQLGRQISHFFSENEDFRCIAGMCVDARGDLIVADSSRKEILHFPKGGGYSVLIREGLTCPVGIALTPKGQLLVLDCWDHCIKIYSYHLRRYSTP
UniProt P62995: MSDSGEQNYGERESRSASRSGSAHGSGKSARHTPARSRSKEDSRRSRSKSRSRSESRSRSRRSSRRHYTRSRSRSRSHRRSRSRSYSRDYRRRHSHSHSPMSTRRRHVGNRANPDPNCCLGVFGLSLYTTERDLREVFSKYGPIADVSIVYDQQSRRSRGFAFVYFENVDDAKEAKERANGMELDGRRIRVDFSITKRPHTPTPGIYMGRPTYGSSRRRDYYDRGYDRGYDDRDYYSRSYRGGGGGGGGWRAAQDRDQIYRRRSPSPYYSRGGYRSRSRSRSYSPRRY
UniProt Q7L0Y3: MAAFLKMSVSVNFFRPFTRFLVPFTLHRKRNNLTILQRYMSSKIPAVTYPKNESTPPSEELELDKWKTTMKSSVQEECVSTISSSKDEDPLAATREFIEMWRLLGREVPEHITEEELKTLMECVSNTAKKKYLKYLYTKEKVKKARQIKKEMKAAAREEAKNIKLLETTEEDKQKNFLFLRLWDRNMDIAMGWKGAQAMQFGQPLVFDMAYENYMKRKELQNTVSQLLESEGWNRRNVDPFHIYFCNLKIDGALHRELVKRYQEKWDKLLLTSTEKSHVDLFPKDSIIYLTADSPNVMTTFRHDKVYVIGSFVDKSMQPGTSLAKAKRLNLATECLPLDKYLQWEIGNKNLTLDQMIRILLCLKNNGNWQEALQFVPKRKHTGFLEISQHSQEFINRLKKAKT
UniProt Q7Z392: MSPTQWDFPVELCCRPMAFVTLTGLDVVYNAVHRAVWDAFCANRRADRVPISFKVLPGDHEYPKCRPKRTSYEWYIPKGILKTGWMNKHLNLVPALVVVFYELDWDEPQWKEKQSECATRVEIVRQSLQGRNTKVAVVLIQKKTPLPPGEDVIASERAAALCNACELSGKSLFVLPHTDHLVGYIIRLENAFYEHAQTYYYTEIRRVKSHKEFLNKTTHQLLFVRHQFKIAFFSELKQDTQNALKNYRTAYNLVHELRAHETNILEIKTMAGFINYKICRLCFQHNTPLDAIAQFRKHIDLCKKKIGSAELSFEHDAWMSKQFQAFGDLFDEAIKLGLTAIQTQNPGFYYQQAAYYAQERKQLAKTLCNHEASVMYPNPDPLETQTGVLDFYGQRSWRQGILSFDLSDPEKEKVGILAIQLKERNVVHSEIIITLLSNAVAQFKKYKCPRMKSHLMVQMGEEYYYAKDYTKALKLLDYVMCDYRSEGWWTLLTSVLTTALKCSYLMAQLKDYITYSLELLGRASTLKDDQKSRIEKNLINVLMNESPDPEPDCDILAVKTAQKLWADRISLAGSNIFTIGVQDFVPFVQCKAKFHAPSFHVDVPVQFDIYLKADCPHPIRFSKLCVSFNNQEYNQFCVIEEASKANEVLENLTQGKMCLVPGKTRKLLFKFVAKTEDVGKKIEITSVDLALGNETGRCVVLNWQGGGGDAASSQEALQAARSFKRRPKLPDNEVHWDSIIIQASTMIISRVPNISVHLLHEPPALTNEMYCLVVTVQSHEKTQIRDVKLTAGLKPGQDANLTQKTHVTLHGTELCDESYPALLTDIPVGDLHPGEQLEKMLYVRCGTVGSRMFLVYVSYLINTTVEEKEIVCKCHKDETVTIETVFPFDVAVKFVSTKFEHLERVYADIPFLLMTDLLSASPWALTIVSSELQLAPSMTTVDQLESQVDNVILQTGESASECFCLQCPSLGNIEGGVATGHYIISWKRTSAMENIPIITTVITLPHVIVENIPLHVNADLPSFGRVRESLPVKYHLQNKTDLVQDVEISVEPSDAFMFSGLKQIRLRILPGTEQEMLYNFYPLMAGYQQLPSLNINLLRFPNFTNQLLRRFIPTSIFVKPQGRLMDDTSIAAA
UniProt Q9UPN9: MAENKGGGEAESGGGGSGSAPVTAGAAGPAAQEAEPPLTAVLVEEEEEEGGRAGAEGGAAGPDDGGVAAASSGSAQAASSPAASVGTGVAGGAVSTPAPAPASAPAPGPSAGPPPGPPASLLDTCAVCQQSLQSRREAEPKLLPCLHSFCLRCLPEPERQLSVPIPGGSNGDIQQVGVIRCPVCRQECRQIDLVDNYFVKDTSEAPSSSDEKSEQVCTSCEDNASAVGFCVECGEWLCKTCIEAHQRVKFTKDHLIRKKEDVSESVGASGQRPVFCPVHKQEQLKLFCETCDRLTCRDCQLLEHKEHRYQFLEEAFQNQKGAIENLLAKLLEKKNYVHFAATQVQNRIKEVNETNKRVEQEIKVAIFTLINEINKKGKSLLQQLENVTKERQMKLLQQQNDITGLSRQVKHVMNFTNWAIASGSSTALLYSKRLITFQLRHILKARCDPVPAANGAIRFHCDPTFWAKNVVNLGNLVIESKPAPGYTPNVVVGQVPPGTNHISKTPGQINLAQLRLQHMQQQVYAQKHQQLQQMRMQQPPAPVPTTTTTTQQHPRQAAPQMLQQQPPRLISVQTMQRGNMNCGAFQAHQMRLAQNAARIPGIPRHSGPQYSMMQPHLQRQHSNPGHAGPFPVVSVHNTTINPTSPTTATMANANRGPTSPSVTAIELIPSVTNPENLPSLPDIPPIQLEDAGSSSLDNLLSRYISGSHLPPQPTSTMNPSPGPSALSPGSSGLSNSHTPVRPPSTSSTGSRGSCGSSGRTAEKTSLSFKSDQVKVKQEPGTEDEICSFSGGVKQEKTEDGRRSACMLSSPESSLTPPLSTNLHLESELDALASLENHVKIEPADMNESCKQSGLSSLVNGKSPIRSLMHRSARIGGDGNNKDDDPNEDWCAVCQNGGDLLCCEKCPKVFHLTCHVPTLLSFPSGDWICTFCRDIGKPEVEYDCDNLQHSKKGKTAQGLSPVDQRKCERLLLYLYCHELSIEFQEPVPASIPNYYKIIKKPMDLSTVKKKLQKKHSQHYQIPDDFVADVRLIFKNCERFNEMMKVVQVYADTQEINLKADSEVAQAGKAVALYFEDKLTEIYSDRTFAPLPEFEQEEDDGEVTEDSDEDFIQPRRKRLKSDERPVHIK

Compound: CC1Cc2ccccc2N1C(=O)C1CCCN(C1)C(=O)CCl (mixture of isomers) [TRIM25 ligand 11 (diastereomer mixture)]
Test: probe-labelled cysteine peptide fold change vs DMSO (competition) (log2 fold change); higher = less target engagement (more negative = stronger competition)
Conditions: THP-1, incubation time: 4 h
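Further: competitive chemoproteomic profiling in live THP-1 cells with an iodoacetamide desthiobiotin (IA-DTB) probe, comparing probe-labelled peptide intensities in compound-treated cells against DMSO-treated controls.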

Target	probe-labelled cysteine peptide fold change (10 µM)	probe-labelled cysteine peptide fold change (50 µM)
TRAF3IP3_Q9Y228_35_CRPNVTTCR (UniProt Q9Y228)	0.0245	0.0481
TRIM14_Q14142_151_EQADSCR (UniProt Q14142)	-0.0226	0.0484
TRIM25_Q14258_174+179_LREFFCPEHSECICHICLVEHK (UniProt Q14258)	-0.0441	-0.0259
TRIT1_Q9H3H1_397_SYHLCDLCDR (UniProt Q9H3H1)	0.187	0.0684
TRIM32_Q13049_509_YSCLCSAVRPK (UniProt Q13049)	-0.0535	0.0751
TRA2B_P62995_119_ANPDPNCCLGVFGLSLYTTER (UniProt P62995)	0.089	0.215
TRANK1_O15050_1930_QHGCLLEAAR (UniProt O15050)	-0.0212	0.0823
TRMT10C_Q7L0Y3_123_TLMECVSNTAK (UniProt Q7L0Y3)	-0.105	0.000645
TRAPPC11_Q7Z392_282_LCFQHNTPLDAIAQFR (UniProt Q7Z392)	-0.139	0.0789
TRIM33_Q9UPN9_276_KKEDVSESVGASGQRPVFCPVHK (UniProt Q9UPN9)	-0.0929	-0.0137
TRIM28_Q13263_651+666_VCQKPGDLVMCNQCEFCFHLDCHLPALQDVPGEEWSCSLCHVLPDLK (UniProt Q13263)	0.265	-0.196
TRIM28_Q13263_666+669_VCQKPGDLVMCNQCEFCFHLDCHLPALQDVPGEEWSCSLCHVLPDLK (UniProt Q13263)	0.0584	-0.127
TRIM25_Q14258_110_ASAPSPNAQVACDHCLK (UniProt Q14258)	-0.0453	-0.00497
